Paper PMC8961561
These are yes or no findings as the source states them, for the method shown. Some entries that bind do so weakly or less than the wild type.

T1: RAS fragment …
T1 sequence (peptide): SYRKQVVIDGETCLLD

T2: TGFR2 fragment …
T2 sequence (peptide): CKFCDVRFSTCDNQ


Tests used:
[1] = target: T1, RAS fragment …; assay: peptide or protein array; PEPscan: overlapping dodecapeptides (two amino acid shift) spanning the complete sequence of one partner on a cellulose membrane; saturated with 3% non-fat dry milk/3% BSA; incubated with the purified protein partner (4 mg/mL, 4 °C, overnight); antibody against that protein, HRP-conjugated secondary antibody, ECL; both purified
[2] = target: T2, TGFR2 fragment …; assay: as above

| binding [1] | binding [2] | Binder |
| --- | --- | --- |
| binds |  | RalGDS (protein, UniProt Q03386 1-895) MVQRMWAEASGPIGGAEPLFPGSRRSRSVWDAVRLEVGVPDSCPVVLHSFTQLDPDLPRLESSTQEIGEELINGVIYSISLRKVQLYPGATKGQRWLGCENESALNLYETCKVRTVKAGTLEKLVEHLVPAFQGSDLSYVTVFLCTYRAFTTTQQVLDLLFKRYGCILPYSSEDGGPQDQLKNAISSILGTWLDQYSEDFCQPPDFPCLKQLVAYVQLNMPGSDLERRAHLLLAQLEDLEPSEVEPEALSPAPVLSLKPASQLEPAPALLLTPSRAVASTPVREPAPVPVLASSPVVAPASELEPALEPPLDPEPTLAPAPELDPTVSQSLHLEPAPVPAPALEPSWPLPETTENGLCAKPHLLLFPPDLVAEQFTLMDAELFKKVVPYHCLGSIWSQRAKKGKEHLAPTIRATVAQFNNVANCVITTCLGDQSMKASDRARVVEHWIEVARECRVLKNFSSLYAILSALQSNAIHRLKKTWEEVSRGSFRVFQKLSEIFSDENNYSLSRELLIKEGTSKFATLEMNPRRTQRRQKETGVIQGTVPYLGTFLTDLVMLDTAMKDYLYGRLINFEKRRKEFEVIAQIKLLQSACNNYSIVPEEHFGAWFRAMGRLSEAESYNLSCELEPPSESASNTLRSKKSTAIVKRWERRQAPSTELSTSSSAHSKSCDQLRCSPYLSSGDITDALSVHSAGSSTSDVEEINMSFVPESPDGQEKKFWESASQSSPETSGISSASSSTSSSSASTTPVSTTRTHKRSVSGVCSYSSSLPLYNQQVGDCCIIRVSLDVDNGNMYKSILVTSQDKAPTVIRKAMDKHNLDEDEPEDYELLQIISEDHKLKIPENANVFYAMNSAANYDFILKKRAFTKGAKVKHGASSTLPRMKQKGLRIARGIF |
|  | binds | Tumor Growth Factor beta 3 (TGF-beta3) (protein, UniProt P10600 24-412) LSTCTTLDFGHIKKKRVEAIRGQILSKLRLTSPPEPTVMTHVPYQVLALYNSTRELLEEMHGEREEGCTQENTESEYYAKEIHKFDMIQGLAEHNELAVCPKGITSKVFRFNVSSVEKNRTNLFRAEFRVLRVPNPSSKRNEQRIELFQILRPDEHIAKQRYIGGKNLPTRGTAEWLSFDVTDTVREWLLRRESNLGLEISIHCPCHTFQPNGDILENIHEVMEIKFKGVDNEDDHGRGDLGRLKKQKDHHNPHLILMMIPPHRLDNPGQGGQRKKRALDTNYCFRNLEENCCVRPLYIDFRQDLGWKWVHEPKGYYANFCSGPCPYLRSADTTHSTVLGLYNTLNPEASASPCCVPQDLEPLTILYYVGRTPKVEQLSNMVVKSCKCS |
